Values from PubChem BioAssay AID686937 (Drosophila RNAi Screening Center, 2013).
The screen tested about 23,000 reagents; below is a random part of those with a known target gene and a result. 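Reduced-secretion tags in replicate 1 do not always agree with the z-scores; no criterion for assigning the tags was given.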 Names joined by + are all predicted targets of the reagent. Not given: the amount of reagent.

- Assay: 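Genes in the fly needed for secretion of protein constitutively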 (primary screen)
- Cells: Drosophila S2 cells expressing secreted horseradish peroxidase
- Reagent: long dsRNA against Drosophila genes
- Time to read-out: about 5.5 days (5 days dsRNA, then 12 h reporter induction)
- Treatment: reporter expression induced after 5 days of dsRNA, read 12 h later; inducer not stated
- Measurement: 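After 5 days of dsRNA and 12 h of reporter induction, medium peroxidase read by chemiluminescence and scored as per-plate z-score; higher values mean more reporter released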
- Scale: z-score: higher = more reporter secreted into medium

target gene | dsRNA | z-score, replicate 1 | z-score, replicate 2 | z-score, replicate 3 | z-score, replicate 4 | phenotype, replicate 1
orion | DRSC18213 | 0.32 | 0.58 | – | – | –
orion | DRSC18214 | 0.35 | 0.6 | – | – | –
eIF3l | DRSC10530 | 0.57 | 0.36 | – | – | –
dpr4 | DRSC14531 | 0.23 | 0.07 | – | – | –
dpr4 | DRSC14929 | 0.36 | 0.62 | – | – | –
promL | DRSC08733 | 0.23 | 0.54 | – | – | –
Lcp3 | DRSC07457 | 0.24 | 0.27 | – | – | –
Taf12 | DRSC16879 | 0.22 | -0.21 | – | – | –
ABCB7 | DRSC08603 | 0.31 | 0.31 | – | – | –
mthl9 | DRSC08506 | 0.36 | 0.22 | – | – | –
cDIP | DRSC14267 | 0.44 | 0.22 | – | – | –
CG32137 | DRSC10271 | 0 | -0.04 | – | – | –
CG32137 | DRSC10272 | -0.65 | -2.22 | – | – | –
CG11342 | DRSC08175 | 0.14 | 0.23 | – | – | –
Irk1 | DRSC14686 | 0.4 | 0.38 | – | – | –
Irk1 | DRSC16106 | 0.1 | 0.06 | – | – | –
v | DRSC20383 | 0.39 | 0.4 | – | – | –
RpL34a | DRSC15964 | 0.28 | 0.35 | – | – | –
dnk | DRSC16933 | 0.36 | 0.57 | – | – | –
CG17271 | DRSC15210 | 0.15 | 0.03 | – | – | –
CG17271 | DRSC22629 | -0.6 | 0.12 | – | – | –
CG14191 | DRSC19546 | 0.33 | 0.23 | – | – | –
Ank | DRSC17127 | 0.66 | 0.44 | – | – | –
CR33317 | DRSC02653 | 0.27 | 0.34 | – | – | –
Dora | DRSC19614 | 0.41 | 0.47 | – | – | –
Dora | DRSC19781 | 0.09 | 0.32 | – | – | –
Dora | DRSC20034 | -0.17 | -0.16 | – | – | –
Dora | DRSC20035 | -0.85 | -0.23 | – | – | –
Gr2a | DRSC18603 | 0.39 | 0.45 | – | – | –
alphaKap4 | DRSC09823 | 0.27 | 0.44 | – | – | –
TwdlN | DRSC15813 | 0.32 | 0.35 | – | – | –
CG11893 | DRSC14429 | 0.36 | 0.36 | – | – | –
Usp8 | DRSC15876 | 0.09 | -0.04 | – | – | –
Klp59D | DRSC04118 | 0.26 | 0.28 | – | – | –
CG31882 | DRSC01084 | 0.26 | 0.26 | – | – | –
Cyp6a15Psi | DRSC07377 | 0.15 | 0.1 | – | – | –
CG10650 | DRSC02085 | 0.33 | 0.13 | – | – | –
CG15047 | DRSC19623 | 0.39 | 0.08 | -0.17 | 0.49 | –
CG15047 | DRSC21443 | 0.99 | 1.86 | – | – | –
CG30432 | DRSC04833 | -0.47 | – | – | – | –
AdoR | DRSC16556 | -0.21 | -0.44 | – | – | –
CG30392 | DRSC22341 | -0.35 | -0.66 | – | – | reduced secretion
DUBAI | DRSC07281 | 0.5 | 0.52 | – | – | –
ninaA | DRSC00830 | 0.19 | 0.4 | – | – | –
dor | DRSC18765 | 0.03 | 0.14 | – | – | –
Tctp | DRSC15649 | 0.05 | -0.42 | – | – | –
MED7 | DRSC16059 | -5.42 | -4.75 | – | – | reduced secretion
CG16723 | DRSC15138 | 0.28 | 0.36 | – | – | –
sw + Sdic4 + Sdic3 + 2 more | DRSC20696 | -0.1 | 0.31 | – | – | –
Arc42 | DRSC14340 | 0.46 | 0.5 | – | – | –
Arc42 | DRSC15627 | 0.17 | -0.14 | – | – | –
CG9010 | DRSC07320 | 0.51 | 0.49 | – | – | –
CG13590 | DRSC04226 | 0.11 | 0.2 | 1.53 | 2.52 | –
CG7551 | DRSC10876 | 0.39 | 0.05 | – | – | –
CG33160 | DRSC08197 | 0.42 | 0.36 | – | – | –
ATPsynGL | DRSC03027 | 0.41 | 0.37 | – | – | –
CG10183 | DRSC14203 | 0.43 | 0.44 | – | – | –
vari | DRSC03202 | 0.21 | 0.25 | – | – | –
sip3 | DRSC15402 | -0.47 | -0.07 | – | – | –
CG31788 | DRSC01630 | 0.08 | -0.08 | – | – | –
Ubr3 | DRSC17987 | 0.22 | 0.18 | – | – | –
Ubr3 | DRSC17997 | 0.18 | 0.13 | – | – | –
CG12279 | DRSC14495 | 0.18 | -0.13 | – | – | –
CG15431 | DRSC00446 | -0.53 | -0.24 | – | – | –
Ret | DRSC03409 | 0.44 | 0.4 | – | – | –
Ret | DRSC03410 | 0.51 | 0.33 | – | – | –
Tmf | DRSC18368 | 0.14 | 0.26 | – | – | –
Ndg | DRSC06223 | 0.49 | 0.42 | – | – | –
CG12672 | DRSC19482 | 0.58 | 0.37 | 0.33 | 0.45 | –
vig2 | DRSC14402 | 0.22 | 0.15 | – | – | –
betaNACtes4 | DRSC19801 | 0.46 | 0.47 | – | – | –
GstS1 | DRSC07436 | 0.39 | 0.46 | – | – | –
Cyp6a21 | DRSC07381 | 0.41 | 0.4 | – | – | –
MED1 | DRSC11808 | -2.28 | -1.49 | – | – | reduced secretion
CG1674 | DRSC17107 | 0.66 | -0.69 | – | – | –
CG1674 | DRSC17142 | 0.37 | 0.36 | – | – | –
AANATL7 | DRSC18616 | 0.23 | 0.23 | – | – | –
CG11089 + CG31381 | DRSC13690 | 0.2 | 0.46 | – | – | –
CG11089 + CG31381 | DRSC14290 | 0.09 | 0.25 | – | – | –
Eip63F-1 | DRSC08072 | -0.25 | 0.31 | – | – | –
Eip63F-1 | DRSC08659 | 0.66 | 0.32 | – | – | –
NimC4 | DRSC01945 | 0.11 | -0.3 | – | – | –
Qsox1 | DRSC06878 | -0.13 | 0.15 | 1.1 | 1.2 | –
Liprin-alpha | DRSC02132 | 0.33 | 0.35 | – | – | –
CG13962 | DRSC02304 | -0.14 | 0.08 | – | – | –
PMCA | DRSC17113 | 0.61 | 0.03 | – | – | –
PMCA | DRSC17114 | 0.72 | 0.09 | – | – | –
PMCA | DRSC17154 | -0.55 | -0.07 | – | – | –
CG9517 (retired record) | DRSC20192 | 0.18 | 0.33 | – | – | –
CG9517 (retired record) | DRSC20193 | 0.17 | 0.16 | – | – | –
CG12589 | DRSC12215 | -0.12 | -1.37 | – | – | –
CG9500 | DRSC03237 | 0.28 | 0.16 | – | – | –
cort | DRSC02148 | 0.53 | 0.38 | – | – | –
okr | DRSC00834 | 0.28 | 0.42 | – | – | –
CG42747 | DRSC10209 | 0.48 | -0.7 | – | – | –
CG42747 | DRSC10210 | 0.55 | 0.38 | – | – | –
CG9008 | DRSC01889 | 0.35 | 0.18 | – | – | –
CG34112 | DRSC12235 | 0.22 | -0.19 | – | – | –
Gbeta76C | DRSC11174 | 0.13 | 0.16 | – | – | –
CG30447 | DRSC05820 | 0.39 | 0.21 | – | – | –
CG34115 | DRSC03840 | -0.31 | -0.22 | – | – | –
pita | DRSC04006 | -1.84 | – | – | – | reduced secretion
pita | DRSC04435 | -2.21 | -2.02 | – | – | reduced secretion
mRpS18B | DRSC02107 | -0.06 | 0.13 | – | – | –

Entries above whose target name begins with S or s (2):
target gene | dsRNA | z-score, replicate 1 | z-score, replicate 2 | z-score, replicate 3 | z-score, replicate 4 | phenotype, replicate 1
sw + Sdic4 + Sdic3 + 2 more | DRSC20696 | -0.1 | 0.31 | – | – | –
sip3 | DRSC15402 | -0.47 | -0.07 | – | – | –
